Our source for the binding values is PMC4536467, “A high affinity RIM-binding protein/Aplip1 interaction prevents the formation of ectopic axonal active zones” (eLife, 2015).

Protein sequences, listed by entry. Tags and fused reporters are not part of them.
UniProt A0A0B4K7K9: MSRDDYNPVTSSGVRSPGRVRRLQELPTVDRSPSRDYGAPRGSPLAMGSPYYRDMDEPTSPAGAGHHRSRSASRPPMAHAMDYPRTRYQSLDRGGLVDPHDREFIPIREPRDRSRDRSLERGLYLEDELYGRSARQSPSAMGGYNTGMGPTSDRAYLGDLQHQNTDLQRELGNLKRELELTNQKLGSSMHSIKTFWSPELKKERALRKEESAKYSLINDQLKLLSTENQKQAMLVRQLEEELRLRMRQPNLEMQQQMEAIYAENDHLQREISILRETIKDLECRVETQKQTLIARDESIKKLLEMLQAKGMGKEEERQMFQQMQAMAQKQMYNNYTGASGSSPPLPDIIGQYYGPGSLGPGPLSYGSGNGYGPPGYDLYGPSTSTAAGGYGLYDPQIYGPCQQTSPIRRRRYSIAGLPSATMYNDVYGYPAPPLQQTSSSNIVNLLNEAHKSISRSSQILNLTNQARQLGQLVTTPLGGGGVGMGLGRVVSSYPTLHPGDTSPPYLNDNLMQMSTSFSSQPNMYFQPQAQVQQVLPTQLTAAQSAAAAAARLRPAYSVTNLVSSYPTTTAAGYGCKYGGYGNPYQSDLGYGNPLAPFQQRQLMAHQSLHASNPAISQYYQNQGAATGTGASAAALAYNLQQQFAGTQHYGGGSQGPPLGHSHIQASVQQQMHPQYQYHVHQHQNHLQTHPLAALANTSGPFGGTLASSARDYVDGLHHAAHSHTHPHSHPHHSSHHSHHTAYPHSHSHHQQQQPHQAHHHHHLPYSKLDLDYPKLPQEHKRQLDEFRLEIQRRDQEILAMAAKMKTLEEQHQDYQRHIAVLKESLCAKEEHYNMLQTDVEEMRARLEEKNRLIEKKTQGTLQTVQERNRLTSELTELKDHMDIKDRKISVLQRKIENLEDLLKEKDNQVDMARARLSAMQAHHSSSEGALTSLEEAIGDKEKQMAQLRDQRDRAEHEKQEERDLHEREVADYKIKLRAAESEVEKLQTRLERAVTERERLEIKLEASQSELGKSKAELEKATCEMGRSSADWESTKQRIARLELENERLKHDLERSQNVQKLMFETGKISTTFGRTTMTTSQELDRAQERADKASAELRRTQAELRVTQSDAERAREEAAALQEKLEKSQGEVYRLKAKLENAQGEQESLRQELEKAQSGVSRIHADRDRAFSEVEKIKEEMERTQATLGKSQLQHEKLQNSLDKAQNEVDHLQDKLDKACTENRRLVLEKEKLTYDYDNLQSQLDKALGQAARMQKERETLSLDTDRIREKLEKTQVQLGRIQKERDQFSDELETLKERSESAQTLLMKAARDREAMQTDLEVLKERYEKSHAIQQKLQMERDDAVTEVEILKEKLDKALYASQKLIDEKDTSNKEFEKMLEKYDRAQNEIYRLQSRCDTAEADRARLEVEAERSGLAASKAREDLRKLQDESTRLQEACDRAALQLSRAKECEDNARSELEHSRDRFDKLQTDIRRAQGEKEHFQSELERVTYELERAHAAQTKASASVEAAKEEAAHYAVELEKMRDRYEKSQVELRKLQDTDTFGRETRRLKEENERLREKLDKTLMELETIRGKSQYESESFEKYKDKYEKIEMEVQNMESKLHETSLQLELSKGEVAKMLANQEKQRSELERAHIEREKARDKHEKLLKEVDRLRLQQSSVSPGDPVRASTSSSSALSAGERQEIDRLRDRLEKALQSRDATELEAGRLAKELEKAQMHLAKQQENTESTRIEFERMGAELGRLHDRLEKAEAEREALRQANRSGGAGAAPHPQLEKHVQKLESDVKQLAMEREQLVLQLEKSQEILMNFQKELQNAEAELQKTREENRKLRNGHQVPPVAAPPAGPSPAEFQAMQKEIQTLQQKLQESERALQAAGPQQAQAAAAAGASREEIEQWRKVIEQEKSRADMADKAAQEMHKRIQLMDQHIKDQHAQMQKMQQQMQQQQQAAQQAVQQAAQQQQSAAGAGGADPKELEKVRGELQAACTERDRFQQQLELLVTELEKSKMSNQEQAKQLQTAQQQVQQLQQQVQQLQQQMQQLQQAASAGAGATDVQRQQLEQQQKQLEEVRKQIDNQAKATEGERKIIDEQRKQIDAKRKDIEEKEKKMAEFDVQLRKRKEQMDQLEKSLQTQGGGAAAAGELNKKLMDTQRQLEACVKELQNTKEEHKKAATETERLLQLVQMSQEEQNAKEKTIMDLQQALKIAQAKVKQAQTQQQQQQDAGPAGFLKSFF

Assay [1] concerns the target T1, Aplip1-GFP (pan-neuronally driven cDNA construct) (D. melanogaster) (UniProt Q9W0K0).
T1 sequence: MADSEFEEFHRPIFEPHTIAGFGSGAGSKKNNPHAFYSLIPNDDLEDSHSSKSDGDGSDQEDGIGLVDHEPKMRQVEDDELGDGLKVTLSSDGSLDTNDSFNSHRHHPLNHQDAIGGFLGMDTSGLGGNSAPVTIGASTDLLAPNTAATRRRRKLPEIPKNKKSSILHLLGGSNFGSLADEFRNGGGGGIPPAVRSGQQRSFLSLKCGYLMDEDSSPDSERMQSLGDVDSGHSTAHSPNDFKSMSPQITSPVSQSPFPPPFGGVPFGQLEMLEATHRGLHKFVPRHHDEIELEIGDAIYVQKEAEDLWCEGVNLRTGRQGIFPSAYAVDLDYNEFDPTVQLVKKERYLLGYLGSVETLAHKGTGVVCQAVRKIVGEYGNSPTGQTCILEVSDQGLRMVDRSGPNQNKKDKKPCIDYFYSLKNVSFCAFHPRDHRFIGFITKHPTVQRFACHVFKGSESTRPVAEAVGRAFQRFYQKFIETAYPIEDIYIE
Description: co-IP; anti-GFP (GFP-Trap-A beads) from adult fly head extract (synaptic membrane / active zone protein-enriched fraction) of elav-Gal4 > UAS-Aplip1^GFP; deoxycholate and Triton X-100 lysate, overnight 4°C; Western blot; controls plain beads and GFP trapped beads. On the technique in general: Immunoblotting shows a protein as a band on a membrane.

Assay [2] deals with T2, RBP SH3-II (yeast two-hybrid bait) (D. melanogaster).
T2 sequence: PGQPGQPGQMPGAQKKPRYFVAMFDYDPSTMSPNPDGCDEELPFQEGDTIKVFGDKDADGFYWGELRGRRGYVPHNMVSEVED
The assay is described as follows: two-hybrid; semi-quantitative liquid ß-galactosidase assay; RBP constructs as bait (pB27), Aplip1 fragments as prey; n = 3 independent experiments.

Assay [3] concerns the target T3, RBP SH3-III (yeast two-hybrid bait) (D. melanogaster).
T3 sequence: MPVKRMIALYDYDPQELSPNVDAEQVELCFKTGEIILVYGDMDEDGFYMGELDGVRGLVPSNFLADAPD
The assay is described as above.

In assay [4] the target is T4, RBP SH3-II+III (yeast two-hybrid bait fragment, 209 AA) (D. melanogaster).
T4 sequence: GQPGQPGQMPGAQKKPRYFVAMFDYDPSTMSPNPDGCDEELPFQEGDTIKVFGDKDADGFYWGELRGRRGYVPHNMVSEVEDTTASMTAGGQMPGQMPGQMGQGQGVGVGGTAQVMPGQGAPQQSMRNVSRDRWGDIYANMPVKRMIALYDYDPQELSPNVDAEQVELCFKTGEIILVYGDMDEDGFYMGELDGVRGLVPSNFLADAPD
Description: two-hybrid; large-scale screen, LexA system (pB27 bait, pP6 prey), RBP SH3-II+III as bait against the HYBRIGENICS D. melanogaster adult head library; RIM and Cac clones not shown.

In assay [5] the target is T5, RBP SH3-I (ITC construct) (D. melanogaster).
T5 sequence: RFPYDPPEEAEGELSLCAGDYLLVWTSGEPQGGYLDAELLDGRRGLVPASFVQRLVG
The assay is described as follows: ITC; 25°C, iTC200; RBP SH3-II and SH3-III at 150 µM, SH3-II+III at 78 µM in the cell, titrated with 16 injections of 2.5 µl peptide at 2 mM; 10 mM Tris-HCl pH 7.4, 100 mM NaCl; 'One Set of Sites' model; both purified. For orientation: Isothermal titration calorimetry measures the heat released or taken up as one component is titrated into another.

No constants are given. Whether binding was seen depends on the method and setting. For some of these results: In cells and extracts the contact can be indirect. Some results given as binding are weak or reduced against the parent protein; the word gives no strength. For some of these results: Sequences can lack the tags named with a protein.

For “Bruchpilot (BRP), endogenous (from UniProt A0A0B4K7K9 1-2238)”, the binding result in assay [1] was “binds”.

B1: Aplip1-PXXP2 (yeast two-hybrid prey fragment, 100 AA) (domain or fragment)
chain: LLGGSNFGSLADEFRNGGGGGIPPAVRSGQQRSFLSLKCGYLMDEDSSPDSERMQSLGDVDSGHSTAHSPNDFKSMSPQITSPVSQSPFPPPFGGVPFGQ
As for B1, the binding entry in assay [2] and in assay [3] was “no binding” in each case.

B2: Aplip1-AXXA1 (yeast two-hybrid prey fragment, 139 AA) (domain or fragment)
chain: EDDELGDGLKVTLSSDGSLDTNDSFNSHRHHPLNHQDAIGGFLGMDTSGLGGNSAPVTIGASTDLLAPNTAATRRRRKLAEIAKNKKSSILHLLGGSNFGSLADEFRNGGGGGIPPAVRSGQQRSFLSLKCGYLMDEDS
For B2, the binding entry in assay [2] and in assay [3] was “no binding” throughout.

B3: Aplip1 full length (yeast two-hybrid prey clone) (protein, UniProt Q9W0K0 1-490)
chain: T1 sequence
On to B3, for which, in assay [4], the binding entry was “binds”. For TRRRRKLPEIPKNKK (N-terminal acetylation; C-terminal amidation) [Aplip-PxxP1 peptide (149-…-163)], the binding result in assay [5] is listed as “no binding (tested: peptide at 2 mM in the syringe)”.
